Data taken from patent US20110077212A1, “THERAPEUTIC USES OF SGLT2 INHIBITORS” (Theracos, Inc., priority 2009, published 2011).

Test: Daily food consumption over the 7 days
Format: in vivo, Sprague-Dawley rats
Conditions: pioglitazone 0.03% diet, not significantly different from vehicle
Description: On day 1, rats were weighed and then received an ad mixed diet (ad lib) containing 0.03% pioglitazone in place of standard chow. Food weight was recorded in order to track consumption over the course of the experiment. At this time, rats were also given drinking water containing compound at the appropriate concentration. Full bottles were pre-weighed and recorded in order to track consumption over the course of the experiment. On day 7, rats, food and water bottles were again weighed and recorded, hematocrits were determined using blood collected by a tail nick. The daily dose of pioglitazone received by each rat was calculated from the total food consumption and the animal's average body weight. Daily dose of TEST COMPOUND or amiloride received by each rat was calculated from the total water consumption and the animal's average body weight.

SMILES | Daily food consumption (in words)
N=C(N)NC(=O)c1nc(Cl)c(N)nc1N [Amiloride, Amiloride HCl Hydrate, reference compound] | slightly lower consumption
OC[C@H]1O[C@@H](c2ccc(Cl)c(Cc3ccc(OCCOC4CC4)cc3)c2)[C@H](O)[C@@H](O)[C@@H]1O [TEST COMPOUND, (2S,3R,4R,5S,6R)-2-(4-chloro-3-(4-(2-cyclopropoxyethoxy)benzyl)phenyl)-6-(hydroxymethyl)tetrahydro-2H-pyran-3,4,5-triol] | slightly higher consumption

Structures can show the parent of a compound that is named as a salt.
